In publication PMC10513324 one finds binding data, which are given here for three molecules.

The target in assay [1] is T1, GST-Bicc1 (full-length, WT) (UniProt Q99MQ1).
T1 sequence: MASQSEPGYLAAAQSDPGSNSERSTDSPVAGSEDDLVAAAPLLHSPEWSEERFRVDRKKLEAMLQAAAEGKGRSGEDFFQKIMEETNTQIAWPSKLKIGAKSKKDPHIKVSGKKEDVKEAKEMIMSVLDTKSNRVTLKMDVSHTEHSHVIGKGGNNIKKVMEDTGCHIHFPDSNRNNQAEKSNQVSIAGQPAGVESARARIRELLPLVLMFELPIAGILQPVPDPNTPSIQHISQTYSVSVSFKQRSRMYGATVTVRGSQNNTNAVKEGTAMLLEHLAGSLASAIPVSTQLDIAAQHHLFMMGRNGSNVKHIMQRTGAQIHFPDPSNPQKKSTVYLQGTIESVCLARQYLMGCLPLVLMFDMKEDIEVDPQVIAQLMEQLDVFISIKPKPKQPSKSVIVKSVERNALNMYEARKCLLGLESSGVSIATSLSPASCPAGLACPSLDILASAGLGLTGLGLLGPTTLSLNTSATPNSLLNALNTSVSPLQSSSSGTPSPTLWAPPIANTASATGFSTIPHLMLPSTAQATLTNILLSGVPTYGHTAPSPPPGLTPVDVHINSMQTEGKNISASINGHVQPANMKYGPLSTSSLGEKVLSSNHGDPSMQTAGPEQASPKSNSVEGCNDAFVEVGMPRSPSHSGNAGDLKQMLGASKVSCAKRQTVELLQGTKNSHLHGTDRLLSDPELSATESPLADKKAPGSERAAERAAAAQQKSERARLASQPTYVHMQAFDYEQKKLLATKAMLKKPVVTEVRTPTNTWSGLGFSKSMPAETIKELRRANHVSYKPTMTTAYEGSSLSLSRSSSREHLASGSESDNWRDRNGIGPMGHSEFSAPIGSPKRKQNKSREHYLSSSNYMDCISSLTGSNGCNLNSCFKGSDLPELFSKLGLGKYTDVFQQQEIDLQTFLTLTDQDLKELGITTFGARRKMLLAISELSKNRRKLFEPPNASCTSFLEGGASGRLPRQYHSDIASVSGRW
The assay can be described thus: pull-down; full-length GST-Bicc1 (WT or mutD) on glutathione-Sepharose 4B beads, no RNA; HEK293T cell extracts with full-length or truncated ANKS3-Flag; 2 h at 4°C; western blot; only the target purified.

The target of assay [2] is T2, HA-Bicc1 (UniProt Q99MQ1).
T2 sequence: T1 sequence
The assay can be described thus: co-IP; anti-HA beads, cytoplasmic extracts of HEK293T cells co-transfected with HA-Bicc1, dsVenus-Dand5 3′ UTR reporter and full-length or truncated ANKS3-Flag, without v5-ANKS6; 2 h at 4°C; wash with 200 mM NaCl, 0.1% NP-40; western blot of the IP fraction.

For the next assay, the target named is T3, ANKS3 ΔNter-Flag (UniProt Q6ZW76).
T3 sequence: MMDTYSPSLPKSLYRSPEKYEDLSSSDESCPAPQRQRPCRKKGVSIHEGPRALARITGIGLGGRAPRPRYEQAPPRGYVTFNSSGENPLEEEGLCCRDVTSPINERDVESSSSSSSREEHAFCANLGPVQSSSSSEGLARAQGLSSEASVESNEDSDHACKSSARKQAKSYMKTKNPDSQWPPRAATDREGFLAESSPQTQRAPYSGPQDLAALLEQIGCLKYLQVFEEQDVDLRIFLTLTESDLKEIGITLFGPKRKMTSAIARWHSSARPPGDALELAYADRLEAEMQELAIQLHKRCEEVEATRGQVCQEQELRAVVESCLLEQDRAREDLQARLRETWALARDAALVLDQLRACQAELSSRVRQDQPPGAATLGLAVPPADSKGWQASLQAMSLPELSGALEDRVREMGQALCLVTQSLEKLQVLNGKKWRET
The assay can be described thus: pull-down; v5-ANKS6 and ANKS3-Flag (full-length or ΔNter) co-transfected in HEK293T, both in the extract; read by what is retained on GST-KH beads; 2 h at 4°C; western blot. For orientation: In western blotting, separated proteins are transferred to a membrane and probed.

Assay [3] addresses T2, HA-Bicc1. Description: co-IP; as a6 but with v5-ANKS6 (8 μg) co-expressed: anti-HA beads, cytoplasmic extracts of HEK293T cells with HA-Bicc1, ANKS3-Flag and v5-ANKS6; western blot of the IP fraction.

Results are given in words; binding and its absence hold for the method and conditions named. Binding seen in cells or lysates may run through a third protein. Some binding calls cover weakened binding; strength is not graded here. Where a sequence is shown, tags or fusion partners need not be part of it.

B1: ANKS3 ΔNter-Flag (domain or fragment, UniProt Q6ZW76)
chain: T3 sequence
In the case of B1, the binding entry (in assay [1]; with HA-Bicc1 [2]) was “binds” throughout.

B2: v5-ANKS6 (protein, UniProt Q68DC2 1-871)
chain: MGEGGLPPAFQLLLRACDQGDTETARRLLEPGAAEPAERGAEPEAGAEPAGAEVAGPGAAAAGAVGAPVPVDCSDEAGNTALQFAAAGGHEPLVRFLLRRGASVNSRNHYGWSALMQAARFGHVSVAHLLLDHGADVNAQNRLGASVLTVASRGGHLGVVKLLLEAGAFVDHHHPSGEQLGLGGSRDEPLDITALMAAIQHGHEAVVRLLMEWGADPNHAARTVGWSPLMLAALTGRLGVAQQLVEKGANPDHLSVLEKTAFEVALDCKHRDLVDYLDPLTTVRPKTDEEKRRPDIFHALKMGNFQLVKEIADEDPSHVNLVNGDGATPLMLAAVTGQLALVQLLVERHADVDKQDSVHGWTALMQATYHGNKEIVKYLLNQGADVTLRAKNGYTAFDLVMLLNDPDTELVRLLASVCMQVNKDKGRPSHQPPLPHSKVRQPWSIPVLPDDKGGLKSWWNRMSNRFRKLKLMQTLPRGLSSNQPLPFSDEPEPALDSTMRAAPQDKTSRSALPDAAPVTKDNGPGSTRGEKEDTLLTTMLRNGAPLTRLPSDKLKAVIPPFLPPSSFELWSSDRSRTRHNGKADPMKTALPQRASRGHPVGGGGTDTTPVRPVKFPSLPRSPASSANSGNFNHSPHSSGGSSGVGVSRHGGELLNRSGGSIDNVLSQIAAQRKKAAGLLEQKPSHRSSPVGPAPGSSPSELPASPAGGSAPVGKKLETSKRPPSGTSTTSKSTSPTLTPSPSPKGHTAESSVSSSSSHRQSKSSGGSSSGTITDEDELTGILKKLSLEKYQPIFEEQEVDMEAFLTLTDGDLKELGIKTDGSRQQILAAISELNAGKGRERQILQETIHNFHSSFESSASNTRAPGNSPCA
For B2, in the assay with ANKS3 ΔNter-Flag, the binding result is reported as “binds”.

B3: ANKS3-Flag (full-length) (protein, UniProt Q6ZW76 1-656)
chain: MSELSDEASEPELLNRSLSMWHGLGTQVSGEELDVPLDLHTAASIGQYEVVKECVQRRELDLNKKNGGGWTPLMYASYIGHDTIVHLLLEAGVSVNVPTPEGQTPLMLASSCGNESIAYFLLQQGAELEMKDIQGWTALFHCTSAGHQHMVRFLLDSGANANVREPICGFTPLMEAAAAGHEIIVQYFLNHGVKVDARDHSGATARMLAKQYGHMKIVALMDTYSPSLPKSLYRSPEKYEDLSSSDESCPAPQRQRPCRKKGVSIHEGPRALARITGIGLGGRAPRPRYEQAPPRGYVTFNSSGENPLEEEGLCCRDVTSPINERDVESSSSSSSREEHAFCANLGPVQSSSSSEGLARAQGLSSEASVESNEDSDHACKSSARKQAKSYMKTKNPDSQWPPRAATDREGFLAESSPQTQRAPYSGPQDLAALLEQIGCLKYLQVFEEQDVDLRIFLTLTESDLKEIGITLFGPKRKMTSAIARWHSSARPPGDALELAYADRLEAEMQELAIQLHKRCEEVEATRGQVCQEQELRAVVESCLLEQDRAREDLQARLRETWALARDAALVLDQLRACQAELSSRVRQDQPPGAATLGLAVPPADSKGWQASLQAMSLPELSGALEDRVREMGQALCLVTQSLEKLQVLNGKKWRET
For the molecule B3, the binding result (in assay [1]; with HA-Bicc1 [2]; in the assay with HA-Bicc1 [3]) was “binds” in each case.
